Experimental data: paper PMC3706368

B1: truncated cdN protein without its N-terminal 44 amino acids (library cDNA clone) (domain or fragment, UniProt Q8TCD5 45-201)
chain: LAREQYRALRPDLADKVASVYEAPGFFLDLEPIPGALDAVREMNDLPDTQVFICTSPLLKYHHCVGEKYRWVEQHLGPQFVERIILTRDKTVVLGDLLIDDKDTVRGQEETPSWEHILFTCCHNRHLVLPPTRRRLLSWSDNWREILDSKRGAAQRE
B2: cdN protein from a.a. 66 to a.a. 109 (domain or fragment, UniProt Q8TCD5 66-109)
chain: EAPGFFLDLEPIPGALDAVREMNDLPDTQVFICTSPLLKYHHCV
B3: a.a. 846 to 1008 of ELKS-δ protein (domain or fragment, UniProt Q8IUD2-3 846-1008)
chain: VEELLMAMEKVKQELESMKAKLSSTQQSLAEKETHLTNLRAERRKHLEEVLEMKQEALLAAISEKDANIALLELSSSKKKTQEEVAALKREKDRLVQQLKQQTQNRMKLMADNYEDDHFKSSHSNQTNHKPSPDQIIQPLLELDQNRSKLKLYIGHLTTLCHD

What was measured:
[1] = biological target: HCV NS3 protein (full-length, from a.a. 1 to 631) (hepatitis C virus (HCV-H isolate)); test: two-hybrid; library screen in yeast (Clontech system); NS3 as bait against a human fetal liver cDNA library HL4029AH; 1x10^6 transformants
[2] = biological target: HCV NS3 protease domain (from a.a. 1 to a.a. 208) (hepatitis C virus (HCV-H isolate)); test: two-hybrid; direct test of defined constructs in yeast (deletion mapping); growth on YEPD without tryptophan, leucine and histidine

Row | Binder | binding [1] | binding [2]
1 | B1 | binds | 
2 | B2 |  | binds
3 | B3 |  | binds

Results are given in words; binding and its absence hold for the method and conditions named. Binding can be weak; no strength is given.
